Experimental data: publication PMC5062614
No constants are given. Whether binding was seen depends on the method and setting. For some assays here: A result given as binding can be weak or reduced; the word gives no strength. Tags and fused reporters may be left off the sequences shown. For some assays here: Binding seen in cells or lysates may run through a third protein. Blank lines part the entries; values can stand above or below the molecule they belong to.

Assays:
NPR3-nLuc (Arabidopsis) = target: T1, NPR3-nLuc (Arabidopsis) (UniProt Q8L746); assay: split reporter; split luciferase; cLuc-JAZ and NPR3-nLuc or NPR4-nLuc transiently co-expressed in N. benthamiana leaves for 2 days; 1 mM luciferin; images 0 and 3 h after 1 mM SA treatment
T1 sequence: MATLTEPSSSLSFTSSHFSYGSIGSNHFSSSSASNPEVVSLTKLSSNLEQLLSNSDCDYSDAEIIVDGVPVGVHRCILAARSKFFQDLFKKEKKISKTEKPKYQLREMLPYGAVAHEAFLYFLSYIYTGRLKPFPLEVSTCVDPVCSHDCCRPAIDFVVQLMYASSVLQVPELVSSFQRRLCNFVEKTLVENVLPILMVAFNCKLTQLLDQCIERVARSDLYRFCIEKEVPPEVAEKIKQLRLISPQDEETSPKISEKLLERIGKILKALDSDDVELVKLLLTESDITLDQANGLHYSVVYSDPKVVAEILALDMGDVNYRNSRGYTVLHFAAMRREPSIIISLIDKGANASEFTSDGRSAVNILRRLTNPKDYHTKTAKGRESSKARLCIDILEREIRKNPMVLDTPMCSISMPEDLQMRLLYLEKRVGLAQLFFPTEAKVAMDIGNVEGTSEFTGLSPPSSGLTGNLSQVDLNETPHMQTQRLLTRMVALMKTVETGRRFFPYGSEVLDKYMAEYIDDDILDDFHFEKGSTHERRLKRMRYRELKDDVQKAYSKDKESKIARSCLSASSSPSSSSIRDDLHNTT

NPR4-nLuc (Arabidopsis) = target: T2, NPR4-nLuc (Arabidopsis) (UniProt Q5ICL9); assay: as above
T2 sequence: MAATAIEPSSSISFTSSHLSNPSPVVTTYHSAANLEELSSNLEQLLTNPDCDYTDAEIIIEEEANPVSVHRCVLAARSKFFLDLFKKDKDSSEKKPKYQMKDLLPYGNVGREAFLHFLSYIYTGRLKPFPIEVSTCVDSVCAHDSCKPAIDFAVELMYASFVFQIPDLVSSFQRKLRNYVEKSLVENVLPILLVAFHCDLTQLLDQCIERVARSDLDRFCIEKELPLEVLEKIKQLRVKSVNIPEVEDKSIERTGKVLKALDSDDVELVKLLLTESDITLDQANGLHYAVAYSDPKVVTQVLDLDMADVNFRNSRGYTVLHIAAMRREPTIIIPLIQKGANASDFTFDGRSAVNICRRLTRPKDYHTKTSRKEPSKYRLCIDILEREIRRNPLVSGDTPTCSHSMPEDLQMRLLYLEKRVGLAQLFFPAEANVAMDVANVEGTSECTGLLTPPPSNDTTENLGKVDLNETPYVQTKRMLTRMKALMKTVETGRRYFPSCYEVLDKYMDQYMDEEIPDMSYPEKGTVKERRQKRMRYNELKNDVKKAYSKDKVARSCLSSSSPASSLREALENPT

[1] = target: T3, NPR3 fused with the DNA binding domain (BD) (Arabidopsis) (UniProt Q8L746); assay: two-hybrid; AD-JAZ (pGADT7, AH109) mated with BD-NPR3 or its derivatives (pGBKT7, Y187); growth on SD-Leu-Trp-His-Ade plates with 100 μM SA
T3 sequence: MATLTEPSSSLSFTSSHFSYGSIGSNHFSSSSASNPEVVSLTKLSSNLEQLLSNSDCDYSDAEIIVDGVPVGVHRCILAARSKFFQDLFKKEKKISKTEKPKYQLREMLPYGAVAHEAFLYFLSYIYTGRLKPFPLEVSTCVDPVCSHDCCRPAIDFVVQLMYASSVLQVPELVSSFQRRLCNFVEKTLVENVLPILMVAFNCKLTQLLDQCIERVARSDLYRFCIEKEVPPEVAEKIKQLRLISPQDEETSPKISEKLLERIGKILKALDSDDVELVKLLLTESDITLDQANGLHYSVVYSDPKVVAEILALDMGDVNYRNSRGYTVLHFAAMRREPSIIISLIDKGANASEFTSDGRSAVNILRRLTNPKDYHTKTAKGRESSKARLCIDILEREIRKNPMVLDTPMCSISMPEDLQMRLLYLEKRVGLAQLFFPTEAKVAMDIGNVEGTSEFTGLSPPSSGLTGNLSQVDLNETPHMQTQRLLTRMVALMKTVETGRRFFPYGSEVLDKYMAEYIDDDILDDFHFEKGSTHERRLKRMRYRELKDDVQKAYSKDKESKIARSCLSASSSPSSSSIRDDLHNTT

[2] = target: T3, NPR3 fused with the DNA binding domain (BD) (Arabidopsis); assay: two-hybrid; AD-JAZ (pGADT7, AH109) mated with BD-NPR3 or its derivatives (pGBKT7, Y187); growth on SD-Leu-Trp-His-Ade plates without SA
[3] = target: T4, NPR3-GFP (35S:NPR3-GFP Arabidopsis transgenic line) (Arabidopsis) (UniProt Q8L746); assay: co-IP; Arabidopsis lines 35S:HA-JAZ1/35S:NPR3-GFP, /35S:NPR4-GFP or /35S:GFP, 4 h.p.i. with Psm ES4326/avrRpt2 (OD600nm=0.2) plus 40 μM MG115; GFP-Trap_A beads 2 h at 4 °C; blot with HA antibody
T4 sequence: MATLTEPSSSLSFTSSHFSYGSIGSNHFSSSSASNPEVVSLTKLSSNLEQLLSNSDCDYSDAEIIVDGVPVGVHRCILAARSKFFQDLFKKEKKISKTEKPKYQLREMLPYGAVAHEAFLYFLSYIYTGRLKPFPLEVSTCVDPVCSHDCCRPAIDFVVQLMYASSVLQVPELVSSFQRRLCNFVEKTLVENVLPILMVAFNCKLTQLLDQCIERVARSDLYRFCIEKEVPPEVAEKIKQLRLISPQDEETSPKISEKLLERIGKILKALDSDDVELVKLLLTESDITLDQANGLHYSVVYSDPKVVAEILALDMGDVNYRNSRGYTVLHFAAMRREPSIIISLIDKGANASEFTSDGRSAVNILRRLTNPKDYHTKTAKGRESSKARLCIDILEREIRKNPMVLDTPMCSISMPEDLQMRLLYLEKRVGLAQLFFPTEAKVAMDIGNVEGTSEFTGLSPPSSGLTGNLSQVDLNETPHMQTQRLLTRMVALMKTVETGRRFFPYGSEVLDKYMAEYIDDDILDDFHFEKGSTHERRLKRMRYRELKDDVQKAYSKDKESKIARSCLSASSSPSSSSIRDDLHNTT

[4] = target: T5, NPR4-GFP (35S:NPR4-GFP Arabidopsis transgenic line) (Arabidopsis) (UniProt Q5ICL9); assay: as above
T5 sequence: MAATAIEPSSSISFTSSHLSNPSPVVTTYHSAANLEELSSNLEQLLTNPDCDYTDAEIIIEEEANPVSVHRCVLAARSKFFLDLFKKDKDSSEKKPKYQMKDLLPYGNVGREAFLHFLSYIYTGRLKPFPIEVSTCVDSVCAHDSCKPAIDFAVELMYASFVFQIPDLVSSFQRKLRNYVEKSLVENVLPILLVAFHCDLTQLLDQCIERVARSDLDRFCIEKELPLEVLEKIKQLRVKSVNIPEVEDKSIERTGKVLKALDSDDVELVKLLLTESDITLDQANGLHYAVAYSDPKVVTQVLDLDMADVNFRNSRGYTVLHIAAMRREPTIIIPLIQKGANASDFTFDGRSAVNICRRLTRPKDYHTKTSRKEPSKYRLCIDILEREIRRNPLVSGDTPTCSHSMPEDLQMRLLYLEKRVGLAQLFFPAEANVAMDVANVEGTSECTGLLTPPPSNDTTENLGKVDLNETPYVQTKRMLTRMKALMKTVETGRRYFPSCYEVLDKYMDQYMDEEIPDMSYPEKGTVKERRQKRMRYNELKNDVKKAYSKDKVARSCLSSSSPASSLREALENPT

GST-JAZ1 (Arabidopsis) = assay: pull-down; GST-JAZ1 or GST on Glutathione magnetic beads incubated 2 h at 4 °C with protein extract of NPR3-GFP or NPR4-GFP from NahG N. benthamiana, treated with or without 1 mM SA or 100 μM MeJA 3 h before collection; blot with GFP antibody; only the target purified

Molecule: HA-JAZ1 (Arabidopsis)
- binding [3]: binds
- binding [4]: binds

B2: NPR3-GFP (expressed in N. benthamiana) (protein, UniProt Q8L746 1-586)
chain: MATLTEPSSSLSFTSSHFSYGSIGSNHFSSSSASNPEVVSLTKLSSNLEQLLSNSDCDYSDAEIIVDGVPVGVHRCILAARSKFFQDLFKKEKKISKTEKPKYQLREMLPYGAVAHEAFLYFLSYIYTGRLKPFPLEVSTCVDPVCSHDCCRPAIDFVVQLMYASSVLQVPELVSSFQRRLCNFVEKTLVENVLPILMVAFNCKLTQLLDQCIERVARSDLYRFCIEKEVPPEVAEKIKQLRLISPQDEETSPKISEKLLERIGKILKALDSDDVELVKLLLTESDITLDQANGLHYSVVYSDPKVVAEILALDMGDVNYRNSRGYTVLHFAAMRREPSIIISLIDKGANASEFTSDGRSAVNILRRLTNPKDYHTKTAKGRESSKARLCIDILEREIRKNPMVLDTPMCSISMPEDLQMRLLYLEKRVGLAQLFFPTEAKVAMDIGNVEGTSEFTGLSPPSSGLTGNLSQVDLNETPHMQTQRLLTRMVALMKTVETGRRFFPYGSEVLDKYMAEYIDDDILDDFHFEKGSTHERRLKRMRYRELKDDVQKAYSKDKESKIARSCLSASSSPSSSSIRDDLHNTT
- binding (GST-JAZ1 (Arabidopsis)): binds

More lines, main results first:

- binding (NPR3-nLuc (Arabidopsis)): binds
- binding (NPR4-nLuc (Arabidopsis)): binds
Molecule: JAZ6 fused with the C-terminal half of luciferase (cLuc) (Arabidopsis)

- binding [1]: binds
Molecule: JAZ2 fused with the transcriptional activation domain (AD) (Arabidopsis)
- binding [2]: no binding (only without SA in the yeast medium)

- binding (GST-JAZ1 (Arabidopsis)): binds
B1: NPR4-GFP (expressed in N. benthamiana) (protein, UniProt Q5ICL9 1-574)
chain: MAATAIEPSSSISFTSSHLSNPSPVVTTYHSAANLEELSSNLEQLLTNPDCDYTDAEIIIEEEANPVSVHRCVLAARSKFFLDLFKKDKDSSEKKPKYQMKDLLPYGNVGREAFLHFLSYIYTGRLKPFPIEVSTCVDSVCAHDSCKPAIDFAVELMYASFVFQIPDLVSSFQRKLRNYVEKSLVENVLPILLVAFHCDLTQLLDQCIERVARSDLDRFCIEKELPLEVLEKIKQLRVKSVNIPEVEDKSIERTGKVLKALDSDDVELVKLLLTESDITLDQANGLHYAVAYSDPKVVTQVLDLDMADVNFRNSRGYTVLHIAAMRREPTIIIPLIQKGANASDFTFDGRSAVNICRRLTRPKDYHTKTSRKEPSKYRLCIDILEREIRRNPLVSGDTPTCSHSMPEDLQMRLLYLEKRVGLAQLFFPAEANVAMDVANVEGTSECTGLLTPPPSNDTTENLGKVDLNETPYVQTKRMLTRMKALMKTVETGRRYFPSCYEVLDKYMDQYMDEEIPDMSYPEKGTVKERRQKRMRYNELKNDVKKAYSKDKVARSCLSSSSPASSLREALENPT
